# Percent effect of library compounds

Sequences of proteins named here, by UniProt entry; tags and fusion partners are left off. Residues count along the entry.
UniProt Q4DA54, 1-478: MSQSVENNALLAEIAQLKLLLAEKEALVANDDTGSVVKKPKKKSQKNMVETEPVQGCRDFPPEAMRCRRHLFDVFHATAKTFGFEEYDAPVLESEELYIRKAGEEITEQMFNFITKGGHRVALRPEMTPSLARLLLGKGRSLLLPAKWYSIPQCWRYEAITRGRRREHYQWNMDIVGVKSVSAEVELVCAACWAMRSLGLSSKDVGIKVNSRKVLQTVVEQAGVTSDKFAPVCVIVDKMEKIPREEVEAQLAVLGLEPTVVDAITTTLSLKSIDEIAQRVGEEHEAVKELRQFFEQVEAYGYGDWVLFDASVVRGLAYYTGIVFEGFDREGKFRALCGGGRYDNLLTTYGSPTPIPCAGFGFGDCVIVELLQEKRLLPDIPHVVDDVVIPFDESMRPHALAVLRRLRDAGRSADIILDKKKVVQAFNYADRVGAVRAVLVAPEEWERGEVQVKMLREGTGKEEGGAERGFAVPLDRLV

Data taken from ChEMBL document CHEMBL3988442, “University of Dundee, Small-Polar-MMV Screening Library” (2021).

The filed quantity is “Percent Effect” (%).
The record does not define 0% and 100%; most values in the screen are far below 50% and negative numbers occur (in some assays of this library far below -100).
This is an unselected part of the compounds tested.

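Enzyme assay of histidyl-tRNA synthetase; the read-out is not stated. Target: Histidine-tRNA ligase, Trypanosoma cruzi CL Brener (UniProt Q4DA54). Tested at 30 µM. Higher reads as stronger inhibition (inferred: compounds with an IC50 in retests scored well above the rest). Of about 69,000 compounds tested this way, about 31 (0.045%) reached 50% or more in at least one test.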

- CN(C)C(=O)CN1CCN(c2ccnc3c(F)ccc(F)c23)CC1 | 3.03%
- CCOCC1CN(Cc2cnn(C)c2)Cc2c1cnn2CC (stereo unspecified) | -0.8264%
- Cc1noc(C)c1CN(C)C(=O)NC1CCOCC1 | 6.745%
- CC(Cn1cccn1)NCC(=O)NC1CCOCC1 (stereo unspecified) | 6.349%
- Cn1cc(CNc2ccc(CCN3CCC(C(N)=O)CC3)cc2)cn1 | 1.01%
- O=C(Nc1ccccc1)N1CCn2c(nnc2C2CCNCC2)C1 | 4.142%
- CS(=O)(=O)NC1CCN(C(=O)c2ccc(F)cc2)CC1 | -3.191%
- CN(C)C(=O)CS(=O)(=O)Cc1cc(Cl)c2c(c1)OCO2 | 0%
- CCn1cc(S(=O)(=O)NC2CCCC2)cn1 | 3.704%
- COc1c(CNC2CCCc3ccccc32)c(C(C)C)nn1C (stereo unspecified) | -1.149%
- CCn1cc(NC(=O)C2CCN(Cc3nc(C)c(C)s3)CC2)cn1 | 3.614%
- Cc1nn(CCCNC(=O)C2CCN(S(C)(=O)=O)CC2)c(Cl)c1Cl | 4.663%
- COc1ccc(C(=O)N2C[C@@H](O)[C@H](NCc3ncccc3C)C2)cc1 | 9.045%
- COc1ncccc1NC(=O)NC(C)(C)c1ncc(C)s1 | 9.244%
- c1ccc(-c2nc(CN3CCCC(Cn4cncn4)C3)no2)cc1 (stereo unspecified) | 4.887%
- Cc1nc(C(=O)N2CCCCC2c2ccc(CN(C)C)cc2)c(C)o1 (stereo unspecified) | 3.061%
- CC(CCNC(=O)NCCc1ccc(S(N)(=O)=O)cc1)c1ccccc1 (stereo unspecified) | 3.784%
- O=C(Nc1nccs1)NC1CCN(Cc2ccccc2)CC1 | 7.918%
- COc1ccc(CCN(C)C(=O)c2cc(C(C)=O)c[nH]2)cc1OC | -1.657%
- Cc1nc(-c2cn(CCN)nn2)n(-c2ccc3c(c2)CCC3)n1 | 2.941%
- Cc1ccc2snc(C(=O)N3CCN(C(=O)NCCC(C)C)CC3)c2c1 | -23.17%
- CS(=O)(=O)N1CCCCCC1c1cc(-c2ccc(F)cc2)no1 (stereo unspecified) | -3.03%
- CCN(C(=O)c1ccc2nnc(C3CCN(C)C3)n2c1)C(C)C (stereo unspecified) | 2.062%
- O=C1CCNC(=O)N1CC(=O)N1CCC1c1ccc(F)cc1 (stereo unspecified) | 3.191%
- O=C(CN1CCC(c2ccccc2)C1)NC(=O)NCC(F)(F)F (stereo unspecified) | 4.142%
- COc1ccc2c(ccn2CCN)c1 | -0.5464%
- Cc1cc(=O)[nH]c(=O)n1-c1ccccc1Br | -0.9901%
- CC(C)COC(C)C(=O)NCc1ccc(F)cc1 (stereo unspecified) | 6.122%
- Cc1cccc(CN2CCc3c(nc(N4CCCCC4C)[nH]c3=O)C2)n1 (stereo unspecified) | 9.189%
- Cc1cc(CN(C)C(=O)NCc2ccnc(N(C)C)c2)no1 | 3.061%
- c1cc(-c2ccc3c(c2)C2(CCNCC2)CC3)ccn1 | -2.532%
- CN(Cc1cccc(-n2cccn2)c1)Cc1c[nH]cn1 | 6.03%
- Cc1nc(CSc2nc(=O)ccn2C(C)C)cs1 | 1.235%
- CCN(C(c1cccnc1)c1ccc2c(c1)CCO2)S(C)(=O)=O (stereo unspecified) | 0.8264%
- CCN(Cc1cccc(C(N)=O)c1)c1ccccc1 | 1.604%
- NC(=O)N1CCCC(C(=O)NCCOc2ccc(F)cc2F)C1 (stereo unspecified) | -1.961%
- CC(C)N1CCC2(CC1)C(=O)N(CCN(C)C)c1ccccc12 | 4.523%
- CC(C)[C@@H]1CN(CCCOc2ccc(F)cc2)C[C@H]1NS(C)(=O)=O | 6.18%

Once more, the final 3:

compound,percent effect
NC(=O)N1CCCC(C(=O)NCCOc2ccc(F)cc2F)C1 (stereo unspecified),-1.961
CC(C)N1CCC2(CC1)C(=O)N(CCN(C)C)c1ccccc12,4.523
CC(C)[C@@H]1CN(CCCOc2ccc(F)cc2)C[C@H]1NS(C)(=O)=O,6.18